Experiment [1] concerns the target T1, Melanoma cell adhesion molecule (MCAM, CD146, MUC18) (human (endogenous in A375 and 92.1)) (UniProt P43121).
T1 sequence (chain, N- and O-linked glycans (sites not told for this experiment)): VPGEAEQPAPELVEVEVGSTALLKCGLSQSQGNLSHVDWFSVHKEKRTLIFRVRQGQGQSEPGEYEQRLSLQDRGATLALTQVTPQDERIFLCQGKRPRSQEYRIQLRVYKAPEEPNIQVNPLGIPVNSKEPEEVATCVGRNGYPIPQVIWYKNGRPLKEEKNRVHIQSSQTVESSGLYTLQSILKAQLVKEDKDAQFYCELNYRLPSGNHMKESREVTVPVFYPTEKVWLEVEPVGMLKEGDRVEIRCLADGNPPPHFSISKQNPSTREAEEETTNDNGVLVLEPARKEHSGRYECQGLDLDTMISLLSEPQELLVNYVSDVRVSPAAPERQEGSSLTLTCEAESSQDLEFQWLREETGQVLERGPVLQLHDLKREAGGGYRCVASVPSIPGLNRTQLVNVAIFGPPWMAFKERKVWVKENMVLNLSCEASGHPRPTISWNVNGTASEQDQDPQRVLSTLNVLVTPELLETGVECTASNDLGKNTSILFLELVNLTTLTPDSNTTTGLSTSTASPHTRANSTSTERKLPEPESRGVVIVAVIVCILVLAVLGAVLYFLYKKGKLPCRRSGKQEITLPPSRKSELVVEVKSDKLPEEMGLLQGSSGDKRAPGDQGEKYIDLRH
Kind of experiment: cross-linking; A375 cells treated with 10 µg/mL galectin-3 or BSA for 30 min at 37 °C, 3 mM BS3 on ice 30 min, lysed in SDS-sample buffer without β-mercaptoethanol, MCAM immunoblot. Background: Immunoblotting shows a protein as a band on a membrane.

By UniProt entry, the sequences of proteins in these tests, tags left out.
UniProt P17931: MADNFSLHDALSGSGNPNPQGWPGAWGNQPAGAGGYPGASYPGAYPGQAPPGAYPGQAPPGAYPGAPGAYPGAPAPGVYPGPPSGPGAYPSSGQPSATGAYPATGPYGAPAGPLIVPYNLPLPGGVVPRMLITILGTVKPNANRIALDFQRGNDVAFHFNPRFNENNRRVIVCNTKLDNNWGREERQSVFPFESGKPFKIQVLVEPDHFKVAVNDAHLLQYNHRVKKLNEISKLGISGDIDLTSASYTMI

For experiment [2], the target named is T2, MCAM treated with O-glycanase (human (endogenous in A375)) (UniProt P43121).
T2 sequence (chain, unsubstituted Galβ1,3GalNAc-α-O- glycans cleaved by O-glycanase): T1 sequence (chain, N- and O-linked glycans (sites not told for this experiment))
Kind of experiment: co-IP; A375 cells incubated with galectin-3 (5 µg/mL) in serum-free medium 2 h at 37 °C, lysed in 1% Triton X-100 in PBS; anti-MCAM antibody or control immunoglobulin, protein A/G beads; beads incubated with PBS, N-glycanase PNGaseF (5U) or O-glycanase (10 mU) overnight at 37 °C, washed; galectin-3 immunoblot; only the binder purified.

Experiment [3] concerns the target T3, MCAM treated with N-glycanase PNGaseF (human (endogenous in A375)) (UniProt P43121).
T3 sequence (chain, N-linked glycans removed by PNGaseF): T1 sequence (chain, N- and O-linked glycans (sites not told for this experiment))
The description is as above.

For experiment [4], the target named is T1, Melanoma cell adhesion molecule (MCAM, CD146, MUC18) (human (endogenous in A375 and 92.1)). The experiment is described as above.
The target is the same in experiment [5]. In words: co-IP; A375 or 92.1 cells lysed in RIPA buffer (150 mM NaCl, 50 mM Tris-HCl, 1% NP40, pH 7.4); anti-MCAM antibody or mouse immunoglobulin, protein A/G agarose, 4 °C; galectin-3 immunoblot.

Results are given in words; binding and its absence hold for the method and conditions named. Binding seen in cells or lysates may run through a third protein. Some results given as binding are weak or reduced against the parent protein; the word gives no strength.

The values below come from paper PMC9599063.

Turning to “Melanoma cell adhesion molecule (MCAM, CD146, MUC18) (from UniProt P43121 24-646) (receptor)”, the binding entry in experiment [1] is on record as “binds”.
For the substance “Recombinant full-length human galectin-3 (from UniProt P17931 1-250) (ligand)”, the binding entry in experiment [2] is “binds weakly”; in experiment [3], “binds”; in experiment [4], “binds”.
Turning to “Galectin-3 (endogenous, melanoma cells) (from UniProt P17931 1-250)”, in experiment [5], the binding entry is on record as “binds”.
